Reference: PMC8152669
These are yes or no findings as the source states them, for the method shown. In cells and extracts the contact can be indirect. Some binding calls cover weakened binding; strength is not graded here.

Chains of the proteins cited; added tags and fusions are not shown.
UniProt P46937: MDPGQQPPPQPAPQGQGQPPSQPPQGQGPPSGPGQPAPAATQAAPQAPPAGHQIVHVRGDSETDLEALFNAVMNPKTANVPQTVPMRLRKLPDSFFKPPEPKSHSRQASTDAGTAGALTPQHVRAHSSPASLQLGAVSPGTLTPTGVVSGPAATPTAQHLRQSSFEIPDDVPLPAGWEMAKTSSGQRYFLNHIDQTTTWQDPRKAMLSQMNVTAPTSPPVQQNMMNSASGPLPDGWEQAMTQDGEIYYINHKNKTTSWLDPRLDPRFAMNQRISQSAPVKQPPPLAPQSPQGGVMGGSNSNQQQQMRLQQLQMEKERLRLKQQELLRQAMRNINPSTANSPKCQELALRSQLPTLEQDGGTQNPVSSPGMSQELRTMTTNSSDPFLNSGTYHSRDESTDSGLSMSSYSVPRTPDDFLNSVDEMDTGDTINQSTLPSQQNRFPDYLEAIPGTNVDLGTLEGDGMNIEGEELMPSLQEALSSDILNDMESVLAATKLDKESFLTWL
UniProt Q93009: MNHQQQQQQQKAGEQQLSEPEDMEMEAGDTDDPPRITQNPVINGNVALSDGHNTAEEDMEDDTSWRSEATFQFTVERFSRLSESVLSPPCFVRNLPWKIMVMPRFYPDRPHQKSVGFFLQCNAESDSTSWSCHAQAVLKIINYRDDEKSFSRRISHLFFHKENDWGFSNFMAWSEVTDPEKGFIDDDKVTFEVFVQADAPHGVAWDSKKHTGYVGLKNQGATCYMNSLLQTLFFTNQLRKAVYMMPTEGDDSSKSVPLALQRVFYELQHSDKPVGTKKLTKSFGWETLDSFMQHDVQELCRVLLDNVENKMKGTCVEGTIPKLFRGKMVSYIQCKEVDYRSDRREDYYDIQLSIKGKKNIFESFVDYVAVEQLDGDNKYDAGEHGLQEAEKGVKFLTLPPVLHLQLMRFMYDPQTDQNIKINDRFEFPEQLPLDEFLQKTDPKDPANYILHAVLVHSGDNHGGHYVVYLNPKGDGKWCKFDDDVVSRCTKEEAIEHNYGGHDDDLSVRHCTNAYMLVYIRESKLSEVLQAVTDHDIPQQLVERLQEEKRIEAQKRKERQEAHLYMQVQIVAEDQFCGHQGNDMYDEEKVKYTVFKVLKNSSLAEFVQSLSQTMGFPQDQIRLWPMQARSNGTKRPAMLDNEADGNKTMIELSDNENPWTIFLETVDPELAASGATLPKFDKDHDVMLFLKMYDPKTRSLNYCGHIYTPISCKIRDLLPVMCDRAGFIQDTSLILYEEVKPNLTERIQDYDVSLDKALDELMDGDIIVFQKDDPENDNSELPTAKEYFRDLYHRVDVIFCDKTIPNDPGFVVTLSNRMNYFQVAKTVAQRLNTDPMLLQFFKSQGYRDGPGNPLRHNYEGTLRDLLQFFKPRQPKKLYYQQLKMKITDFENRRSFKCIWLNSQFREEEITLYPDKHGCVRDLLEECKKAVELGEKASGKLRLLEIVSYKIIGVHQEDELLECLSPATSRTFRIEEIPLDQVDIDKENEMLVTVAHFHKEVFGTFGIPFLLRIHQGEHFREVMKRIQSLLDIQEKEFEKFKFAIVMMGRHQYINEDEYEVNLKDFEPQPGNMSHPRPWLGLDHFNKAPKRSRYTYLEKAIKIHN

Molecular target: Flag-YAP (Yes-associated protein) (UniProt P46937)
Assay: co-IP; 293T cells co-transfected with Flag-YAP and HA-USP7; lysed in IP lysis buffer; immunoprecipitated with magnetic beads and FLAG antibody (Pierce Direct Magnetic IP/Co-IP kit); immunoblotting; in some panels cells were cultured with different serine concentrations and treated with MG132 (10 uM, 6 h)

HA-USP7 (from UniProt Q93009 1-1102) (enzyme)
binding: binds
